# Values from PubChem BioAssay AID504804 (Drosophila RNAi Screening Center, 2011).
# Assay: 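Fly genes whose loss lessens doxorubicin-driven cell death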 (primary screen)
# Cell system: Drosophila Kc cells
# Knock-down reagent: long dsRNA against Drosophila genes, 0.5 µg dsRNA per well
# Time to read-out: 96 h (48 h knock-down, then 48 h drug)
# Treatment: doxorubicin 5 µg/ml for 48 h, added 48 h after dsRNA
# Detection: 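Luminescent ATP counts per replicate, not normalised, reflecting viable cells after 48 h dsRNA knock-down followed by 48 h of 5 µg/ml doxorubicin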
# Reading the numbers: raw ATP luminescence: higher = more viable cells, protection from doxorubicin
# Active means: 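z-score of 2 or more over plate mean in both duplicates, retained only when retests and separate dsRNAs confirm the protection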
# In all, the deposit lists about 19,000 reagents; below is a random part of those with a known target gene and a result. Of all reagents, 47 (0.25%) got an active call. 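Signals are raw, not normalised; exact z-scores behind calls not deposited; actives needed confirmation, so some wells reaching 2 SD are inactive.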 Unmarked entries are inactive. Names joined by + are all predicted targets of the reagent.
Target gene,dsRNA,"raw ATP luminescence, replicate 1","raw ATP luminescence, replicate 2"
olf413,DRSC11543,57253,59117
olf413,DRSC11679,63673,62847
olf413,DRSC11721,76543,62743
olf413,DRSC11833,72063,69877
mtTFB1 + Ccdc56,DRSC10809,49293,31957
Idi,DRSC15918,43517,49157
sgll,DRSC15442,67480,74020
CSN6,DRSC16593,54720,51740
TyrRS-m,DRSC04286,54180,40953
CG15731,DRSC19698,3.98e5,3.45e5
Prx2,DRSC20256,3.45e5,2.93e5
Gpa2,DRSC21071,2.60e5,2.72e5
CG33768,DRSC11715,53337,49437
CG10543,DRSC04081,41567,45607
CG31635,DRSC02273,22893,24290
CG31635,DRSC02274,28173,20473
PCNA,DRSC07653,49533,59207
CG10514,DRSC14249,83340,94240
DMAP1,DRSC06044,58343,57143
hebe,DRSC05192,98223,88327
hebe,DRSC06605,91647,44527
CG42726 + CG42727,DRSC14485,33527,22173
Sec61beta,DRSC07548,1.34e5,1.44e5
Rassf,DRSC15612,41640,38507
CG32686,DRSC17645,1.92e5,1.97e5
CG42505 + CG42504 + CG31358,DRSC15235,73860,42980
CG42505 + CG42504 + CG31358,DRSC15308,2.01e5,1.55e5
CG42505 + CG42504 + CG31358,DRSC15309,43513,53773
mthl8,DRSC08211,63950,67407
AspRS-m,DRSC02646,76247,74440
cry,DRSC16928,47990,53330

No new results follow: entries from further up.
Target gene,dsRNA,"raw ATP luminescence, replicate 1","raw ATP luminescence, replicate 2"
CG31635,DRSC02273,22893,24290
CG31635,DRSC02274,28173,20473
PCNA,DRSC07653,49533,59207
CG10514,DRSC14249,83340,94240
DMAP1,DRSC06044,58343,57143
hebe,DRSC05192,98223,88327
hebe,DRSC06605,91647,44527

The listing continues:
Target gene,dsRNA,"raw ATP luminescence, replicate 1","raw ATP luminescence, replicate 2"
Spf30,DRSC11976,52543,55493
puc,DRSC17034,39260,43870
Mipp1,DRSC11223,28580,24133
CG11458,DRSC11666,53373,43263
CG3907,DRSC04432,35583,44933
RhoL,DRSC16824,52010,31853
CG11125,DRSC06042,51940,67723
Ts,DRSC00795,31607,31013
CG30050,DRSC05342,84803,89040
CG34461,DRSC10767,77060,76250
CG11313,DRSC14295,54750,40830
CG8343,DRSC04905,65777,65323
NimB5,DRSC01885,54627,74620
Adgf-C,DRSC16473,58760,98550
wnd,DRSC09626,63573,54010
wnd,DRSC11046,21527,23520
Dus3,DRSC02059,56457,54817
CG16717,DRSC10221,76320,1.42e5
BBS9,DRSC04257,61517,56973
CG7149,DRSC03016,91487,67520
CanA1,DRSC16600,59700,46630
Ir7c,DRSC18007,29940,33090
CG12539,DRSC19470,2.88e5,2.91e5
Trpml + CG42638,DRSC11032,19037,17307
Irc,DRSC16454,53083,45443
ND6 (retired record),DRSC21271,2.42e5,2.35e5
glu,DRSC03539,93667,75443
inaF-C,DRSC18902,1.84e5,1.94e5
Gr10b,DRSC19477,2.60e5,2.79e5
Ser,DRSC16856,58540,32850
CG33758,DRSC05158,74823,75097
mRpS17,DRSC04463,35150,51863
Rgk3,DRSC04250,21233,32430
Rgk3,DRSC04251,59120,59110
Rgk3,DRSC04254,50943,49810
Rgk3,DRSC04255,52403,53977
CG8461,DRSC16424,44207,26707
Coq8,DRSC19900,3.37e5,3.18e5
eIF2gamma,DRSC13081,1.04e5,1.01e5
eIF2gamma,DRSC16873,58750,29587
mab-21,DRSC18791,47120,46560
Paris,DRSC00451,1.25e5,1.06e5
CG17177,DRSC10257,59830,48100
eIF3j,DRSC06107,85803,80743
mRNA-cap,DRSC19789,3.77e5,3.13e5
CG42538,DRSC09412,77810,91750
PEK,DRSC12361,55247,32363
CG4714,DRSC06883,70073,77147
CG13239,DRSC11694,64330,64077
bru2,DRSC01246,1.94e5,1.81e5
bru2,DRSC01247,1.96e5,2.06e5
bru2,DRSC01249,2.59e5,2.27e5
bru2,DRSC01250,2.14e5,2.11e5
bru2,DRSC02557,32210,38083
